In US20250154263A1 (FEINSTEIN INSTITUTES FOR MEDICAL RESEARCH, published 2025):
Results are given in words; binding and its absence hold for the method and conditions named. Some binding calls cover weakened binding; strength is not graded here. One block for each binder: values may come before it.

Legend:
[1] = biological target: T1, recombinant CLECL1 (rCLECL1) protein (human) (UniProt Q8IZS7); assay: ELISA on rCLECL1 protein (FIG. 8D)
T1 sequence: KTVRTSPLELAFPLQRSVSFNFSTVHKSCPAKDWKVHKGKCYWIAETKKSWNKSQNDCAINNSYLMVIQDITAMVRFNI

[2] = biological target: T1, recombinant CLECL1 (rCLECL1) protein (human); assay: hybridoma screening, cross reactivities (FIG. 10)

binding [1]: binds
binding [2]: binds
B1: mAb 17.2 (antibody, mouse IgG1, V domains shown)
VH: EVQLQQSGAELVRSGASVKLSCTTSGFNIKDFYIHWVRQRPEQGLEWIGWIDPKNDDTEYAPRFQGKATVTADTSSNTAYLHLSGLTSEDTAVYYCNGRYPTMDFWGQGTSVT
VL: EIVLTQSPITMTTSPGEKITITCSASSSISSHYLHWYQQKPGFSPKLLIYRASNLASGVPTRFSGSGSGTSYSLTIDTMEAEDVATYFCQQGSSLPLTFGAGTKLELK
notes: also called 17.2.3; hybridoma #17

binding [1]: binds
binding [2]: binds
B2: mAb 243.6 (antibody, mouse IgG1, V domains shown)
VH: EVQLQQSGTVLVRSGASVKLSCTASGFNIKEYYIHWVKQRPEQGLEWIAWIDLENGESEYAPKFQGKATLTADTSSNTAYLQLSGLTSEDTAVYYCNAFHGNYAHNYAIDYWGQGTSVTVSQ
VL: DIVMSQSPSSLAVSAGEKVTMTCKSSQSLLNSRTRKNYLAWYQQKPGQSPKLLIYWASTRKSGVPDRFTGSGSGTDFTLTISSVQAEDLAVYYCKQSYNLRTFGGGTKLEIK
notes: also called 243.6.1
